Data published in publication PMC4626869, “Subcellular trafficking of guanylyl cyclase/natriuretic peptide receptor-A with concurrent generation of intracellular cGMP” (Bioscience Reports, 2015).
Results are given in words; binding and its absence hold for the method and conditions named. In cells and extracts the contact can be indirect. Some binding calls cover weakened binding; strength is not graded here.

Sequences of proteins named here, by UniProt entry; tags and fusion partners are left off. Residues count along the entry.
UniProt Q15075: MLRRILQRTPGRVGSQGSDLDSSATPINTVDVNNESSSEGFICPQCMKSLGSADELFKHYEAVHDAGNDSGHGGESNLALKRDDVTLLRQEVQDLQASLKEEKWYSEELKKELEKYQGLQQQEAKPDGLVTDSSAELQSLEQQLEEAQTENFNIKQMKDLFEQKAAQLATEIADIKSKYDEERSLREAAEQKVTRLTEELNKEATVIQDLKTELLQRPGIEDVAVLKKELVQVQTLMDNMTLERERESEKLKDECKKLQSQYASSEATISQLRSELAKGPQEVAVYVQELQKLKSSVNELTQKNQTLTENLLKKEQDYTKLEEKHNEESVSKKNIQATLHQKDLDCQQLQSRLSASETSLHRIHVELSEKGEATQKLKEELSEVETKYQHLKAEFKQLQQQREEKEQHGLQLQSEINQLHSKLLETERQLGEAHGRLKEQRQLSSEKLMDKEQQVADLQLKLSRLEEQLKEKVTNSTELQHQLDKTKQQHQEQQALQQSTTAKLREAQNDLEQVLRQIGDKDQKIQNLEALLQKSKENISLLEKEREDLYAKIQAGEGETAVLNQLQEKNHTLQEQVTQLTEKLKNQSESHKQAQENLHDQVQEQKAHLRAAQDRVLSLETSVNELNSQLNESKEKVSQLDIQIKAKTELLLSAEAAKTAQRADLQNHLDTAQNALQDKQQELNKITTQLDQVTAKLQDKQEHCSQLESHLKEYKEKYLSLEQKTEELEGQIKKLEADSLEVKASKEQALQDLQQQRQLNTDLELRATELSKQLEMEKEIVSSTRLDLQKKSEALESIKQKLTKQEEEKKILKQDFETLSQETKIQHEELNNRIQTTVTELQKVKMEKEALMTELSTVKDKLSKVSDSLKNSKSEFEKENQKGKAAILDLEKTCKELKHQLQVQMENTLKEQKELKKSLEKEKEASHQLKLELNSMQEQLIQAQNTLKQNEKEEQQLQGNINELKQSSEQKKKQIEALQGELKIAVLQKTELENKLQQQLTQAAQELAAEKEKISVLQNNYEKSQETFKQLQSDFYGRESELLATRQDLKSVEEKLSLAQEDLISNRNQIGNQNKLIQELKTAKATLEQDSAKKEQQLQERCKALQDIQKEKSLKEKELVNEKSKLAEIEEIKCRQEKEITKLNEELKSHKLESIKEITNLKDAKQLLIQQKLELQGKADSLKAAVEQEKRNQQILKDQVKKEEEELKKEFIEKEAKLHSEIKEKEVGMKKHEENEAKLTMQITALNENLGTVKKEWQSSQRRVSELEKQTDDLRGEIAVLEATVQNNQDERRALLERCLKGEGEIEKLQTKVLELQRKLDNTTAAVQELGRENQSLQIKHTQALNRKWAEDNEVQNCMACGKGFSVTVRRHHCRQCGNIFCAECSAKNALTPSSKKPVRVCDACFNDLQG
UniProt P18293, residues 29-1057: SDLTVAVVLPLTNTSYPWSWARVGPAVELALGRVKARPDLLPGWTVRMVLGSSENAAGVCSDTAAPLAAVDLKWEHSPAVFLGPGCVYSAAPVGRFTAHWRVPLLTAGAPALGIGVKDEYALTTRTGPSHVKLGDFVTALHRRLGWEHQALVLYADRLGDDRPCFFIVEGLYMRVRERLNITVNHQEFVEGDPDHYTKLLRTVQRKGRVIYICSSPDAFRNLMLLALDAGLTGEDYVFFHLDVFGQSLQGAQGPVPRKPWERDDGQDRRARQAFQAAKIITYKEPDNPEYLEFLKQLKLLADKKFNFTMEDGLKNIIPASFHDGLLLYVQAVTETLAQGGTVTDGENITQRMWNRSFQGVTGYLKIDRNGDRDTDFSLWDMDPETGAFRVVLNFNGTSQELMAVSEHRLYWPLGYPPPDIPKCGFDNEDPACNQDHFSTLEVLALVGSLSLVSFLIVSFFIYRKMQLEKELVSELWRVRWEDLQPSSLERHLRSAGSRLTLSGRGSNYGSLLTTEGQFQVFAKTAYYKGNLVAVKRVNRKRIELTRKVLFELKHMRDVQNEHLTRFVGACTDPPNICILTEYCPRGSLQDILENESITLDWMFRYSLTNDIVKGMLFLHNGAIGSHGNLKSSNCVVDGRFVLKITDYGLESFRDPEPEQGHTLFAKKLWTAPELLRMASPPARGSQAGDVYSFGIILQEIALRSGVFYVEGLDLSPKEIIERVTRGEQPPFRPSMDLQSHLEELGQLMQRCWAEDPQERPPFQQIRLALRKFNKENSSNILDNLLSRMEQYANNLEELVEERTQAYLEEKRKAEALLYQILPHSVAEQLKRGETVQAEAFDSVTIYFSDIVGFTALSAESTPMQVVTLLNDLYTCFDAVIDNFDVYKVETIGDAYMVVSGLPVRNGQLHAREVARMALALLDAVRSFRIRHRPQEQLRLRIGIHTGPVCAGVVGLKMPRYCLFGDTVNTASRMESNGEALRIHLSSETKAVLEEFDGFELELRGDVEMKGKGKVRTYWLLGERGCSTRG

Assays:
[1] = target: T1, lysosome-associated membrane protein-1 (LAMP-1) (human (endogenous in HEK-293)) (UniProt P11279); test: co-IP; HEK-293 cells stimulated with 100 nM ANP for 5, 10, 15 and 30 min; 500 μg of DDM-solubilized membranes or cytosolic fraction incubated with 4 μg of primary antibody (pan-cadherin, EEA-1, LAMP-1 or Rab 11) and protein A/G agarose at 4°C; immunoblot of NPRA
T1 sequence: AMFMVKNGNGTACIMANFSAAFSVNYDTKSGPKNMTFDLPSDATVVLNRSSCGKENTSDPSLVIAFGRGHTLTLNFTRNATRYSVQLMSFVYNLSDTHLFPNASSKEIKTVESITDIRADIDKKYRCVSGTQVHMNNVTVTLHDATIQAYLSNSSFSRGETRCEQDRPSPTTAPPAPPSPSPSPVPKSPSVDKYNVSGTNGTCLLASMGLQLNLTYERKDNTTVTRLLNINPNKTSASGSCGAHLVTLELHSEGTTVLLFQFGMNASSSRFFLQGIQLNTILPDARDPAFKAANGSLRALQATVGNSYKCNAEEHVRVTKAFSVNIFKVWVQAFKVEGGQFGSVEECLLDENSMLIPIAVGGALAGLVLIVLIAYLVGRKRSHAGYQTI

[2] = target: early endosome antigen-1 (EEA-1) (human (endogenous in HEK-293)) (UniProt Q15075); test: as above

binding [1]: binds
binding [2]: binds
Substance: enhanced GFP-tagged guanylyl cyclase/natriuretic peptide receptor-A (eGFP–NPRA fusion protein) (from UniProt P18293 29-1057)
